PubChem BioAssay AID686937 | Drosophila RNAi Screening Center, 2013
Purpose: 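Genes in the fly needed for secretion of protein constitutively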 (primary screen). System: Drosophila S2 cells expressing secreted horseradish peroxidase. Reagents: long dsRNA against Drosophila genes. Timing: about 5.5 days (5 days dsRNA, then 12 h reporter induction). Conditions: reporter expression induced after 5 days of dsRNA, read 12 h later; inducer not stated. Measured: 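After 5 days of dsRNA and 12 h of reporter induction, medium peroxidase read by chemiluminescence and scored as per-plate z-score; higher values mean more reporter released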. Scale: z-score: higher = more reporter secreted into medium.
The deposit covers about 23,000 reagents; below is an unselected part of those with a known target gene and a result. 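Reduced-secretion tags in replicate 1 do not always agree with the z-scores; no criterion for assigning the tags was given.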 A plus sign joins genes that one reagent is predicted to hit. Further read-outs or replicates are left out here. Not stated in the record: the amount of reagent.

z-score, replicate 1, by gene knocked down and reagent
Ars2: SID104184685 -0.05
Oxp: SID104186504 -0.23
Hayan: SID104199781 0.22; SID104201760 0.32
CG4313: SID104198306 0.26
CG30105: SID104185460 -0.07
mRpS31: SID104190348 0.27
Arpc3A: SID104195388 0.16
loj: SID104189583 0.49
CG1307: SID104192284 0.37
CG31473: SID104195235 0.26
ced-6: SID104187383 0.29
dnc: SID104197550 0.11; SID104197551 0.48; SID104197703 0.51; SID104198555 0.05; SID104198556 -0.01
Cyp9b2: SID104187182 -0.05
su(r): SID104198497 0.15
Coq9: SID104202271 0.24
CG31784: SID104181366 -0.16
CG11629: SID104183487 -0.02
CG16956: SID104182336 0.39
CG3662: SID104180418 0.59
Osi1: SID104192063 0.45
MCTS1: SID104198185 0.49
CG13594: SID104184021 0.65
ry: SID104196840 0.44
CG6295: SID104195804 0.23
Cyp313a5: SID104196420 0.42
CG18764: SID104195183 0.28
Bap55: SID104186792 0.42
BEAF-32 + CG42254 (retired record): SID104185295 0.2
dsx-c73A: SID104189227 0.02; SID104189706 0.48; SID104190221 0.39
LysD + LysB + LysC (retired record): SID104201041 0.49
Mettl3: SID104195713 0.26
CG5162: SID104199727 0.39
Eig71Ef: SID104190945 0.61
CCDC53: SID104182848 0.52
CG42268: SID104189963 0.26; SID104190494 0.01; SID104201455 -1.48
Idua: SID104182733 0.17
Pex10: SID104188391 0.33; SID104201607 -0.28
CG30389: SID104183869 -0.72; SID104184244 0.05
CG15865: SID104199525 0.14
ND-49L: SID104194229 0.06
E2f2: SID104183112 0.23
CG4783: SID104195436 -1.5
toc: SID104179961 0.87; SID104179963 0.29; SID104180634 0.21
CG14324: SID104194595 -0.3
CG14194: SID104199341 -0.08
Fibp: SID104190823 0.36
Cpr67Fa2: SID104190107 0.11
Kap3: SID104199218 0.2
Pdhb: SID104194212 0.48
CG12985: SID104199297 -0.31
Tailor: SID104192318 0.21
CG1529: SID104200307 0.58
CG14106: SID104189901 0.26
Fpgs1: SID104199649 0.33
Dr: SID104196794 0.49; SID104202093 -1.39
CG30457: SID104186453 0.24
asRNA:CR43470 + CG14830: SID104189992 0.05
CG14448: SID104191497 0.16
CG3927: SID104184225 0.28; SID104202172 0.06
Fili: SID104183699 -0.15; SID104183924 0.11; SID104184237 -0.24
bonsai: SID104184245 0.08
Rrp4: SID104184226 0.14
spin: SID104186968 -1.46; SID104201791 0.11
CG13376: SID104197693 0.42
